The target of experiment [1] is T1, C9orf72-HA (C-terminal HA-tagged C9orf72) (UniProt Q96LT7).
T1 sequence: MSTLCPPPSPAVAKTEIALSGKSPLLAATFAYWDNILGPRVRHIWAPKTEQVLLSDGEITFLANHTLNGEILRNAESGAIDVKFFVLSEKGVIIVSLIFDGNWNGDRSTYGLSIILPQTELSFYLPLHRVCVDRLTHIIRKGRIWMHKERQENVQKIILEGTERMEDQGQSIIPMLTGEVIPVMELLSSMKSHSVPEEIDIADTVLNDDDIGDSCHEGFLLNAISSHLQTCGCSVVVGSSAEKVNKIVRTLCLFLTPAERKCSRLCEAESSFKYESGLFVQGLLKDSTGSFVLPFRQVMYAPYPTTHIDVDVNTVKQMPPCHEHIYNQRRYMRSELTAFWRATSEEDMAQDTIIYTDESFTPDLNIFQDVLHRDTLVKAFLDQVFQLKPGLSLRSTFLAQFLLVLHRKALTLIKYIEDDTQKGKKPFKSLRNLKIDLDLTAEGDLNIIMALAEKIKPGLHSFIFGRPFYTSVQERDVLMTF
Nature of the experiment: affinity purification with mass spectrometry; HA-IP (anti-HA beads, overnight, 4°C) from C9orf72-HA expressing 293T SMCR8 KO cells treated with DMSO or Btz (1 μM, 8 h); MCLB buffer (50 mM Tris-HCl pH 7.4, 150 mM NaCl, 0.5% NP-40); eluted with HA peptide; label-free quantification, Btz against DMSO.

By UniProt entry, the sequences of proteins in these tests, tags left out.
UniProt P46379: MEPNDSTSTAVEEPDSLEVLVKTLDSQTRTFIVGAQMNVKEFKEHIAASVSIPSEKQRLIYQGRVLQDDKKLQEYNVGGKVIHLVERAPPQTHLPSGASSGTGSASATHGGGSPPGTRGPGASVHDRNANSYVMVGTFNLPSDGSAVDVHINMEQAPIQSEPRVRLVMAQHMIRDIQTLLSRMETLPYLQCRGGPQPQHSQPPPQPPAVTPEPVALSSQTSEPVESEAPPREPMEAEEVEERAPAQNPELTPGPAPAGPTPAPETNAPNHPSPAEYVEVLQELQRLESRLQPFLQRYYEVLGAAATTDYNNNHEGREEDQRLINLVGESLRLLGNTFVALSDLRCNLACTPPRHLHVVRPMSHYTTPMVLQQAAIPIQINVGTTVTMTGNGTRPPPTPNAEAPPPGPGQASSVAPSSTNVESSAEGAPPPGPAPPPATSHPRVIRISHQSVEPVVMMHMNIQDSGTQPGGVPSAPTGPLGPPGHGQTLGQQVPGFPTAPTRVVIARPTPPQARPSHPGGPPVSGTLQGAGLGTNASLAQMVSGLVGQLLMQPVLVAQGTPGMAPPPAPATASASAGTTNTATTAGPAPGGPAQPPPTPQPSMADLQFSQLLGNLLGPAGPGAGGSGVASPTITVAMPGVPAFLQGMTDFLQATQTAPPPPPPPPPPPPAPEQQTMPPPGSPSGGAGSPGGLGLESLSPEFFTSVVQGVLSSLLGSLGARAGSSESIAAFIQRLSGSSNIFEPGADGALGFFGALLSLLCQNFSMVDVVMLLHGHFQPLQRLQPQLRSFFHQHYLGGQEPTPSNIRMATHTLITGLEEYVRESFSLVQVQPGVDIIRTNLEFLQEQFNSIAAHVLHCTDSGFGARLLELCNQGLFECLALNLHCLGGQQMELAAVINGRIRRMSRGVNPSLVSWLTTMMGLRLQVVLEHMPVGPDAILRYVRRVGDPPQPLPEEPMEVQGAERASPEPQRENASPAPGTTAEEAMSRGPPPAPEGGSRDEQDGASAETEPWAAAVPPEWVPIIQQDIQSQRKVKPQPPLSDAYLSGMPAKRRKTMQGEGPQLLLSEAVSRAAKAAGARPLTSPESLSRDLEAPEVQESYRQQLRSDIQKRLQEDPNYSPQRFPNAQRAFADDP
UniProt Q7L5D6: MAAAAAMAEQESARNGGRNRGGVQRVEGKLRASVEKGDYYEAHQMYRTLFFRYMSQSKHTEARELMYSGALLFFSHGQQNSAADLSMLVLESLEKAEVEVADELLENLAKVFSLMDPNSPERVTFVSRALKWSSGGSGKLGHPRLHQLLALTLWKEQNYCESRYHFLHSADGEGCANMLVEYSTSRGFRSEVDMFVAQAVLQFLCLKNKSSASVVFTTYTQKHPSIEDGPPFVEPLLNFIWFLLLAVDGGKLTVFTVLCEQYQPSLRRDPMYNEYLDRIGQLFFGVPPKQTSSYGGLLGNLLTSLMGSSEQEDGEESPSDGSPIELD
UniProt Q9ULT8: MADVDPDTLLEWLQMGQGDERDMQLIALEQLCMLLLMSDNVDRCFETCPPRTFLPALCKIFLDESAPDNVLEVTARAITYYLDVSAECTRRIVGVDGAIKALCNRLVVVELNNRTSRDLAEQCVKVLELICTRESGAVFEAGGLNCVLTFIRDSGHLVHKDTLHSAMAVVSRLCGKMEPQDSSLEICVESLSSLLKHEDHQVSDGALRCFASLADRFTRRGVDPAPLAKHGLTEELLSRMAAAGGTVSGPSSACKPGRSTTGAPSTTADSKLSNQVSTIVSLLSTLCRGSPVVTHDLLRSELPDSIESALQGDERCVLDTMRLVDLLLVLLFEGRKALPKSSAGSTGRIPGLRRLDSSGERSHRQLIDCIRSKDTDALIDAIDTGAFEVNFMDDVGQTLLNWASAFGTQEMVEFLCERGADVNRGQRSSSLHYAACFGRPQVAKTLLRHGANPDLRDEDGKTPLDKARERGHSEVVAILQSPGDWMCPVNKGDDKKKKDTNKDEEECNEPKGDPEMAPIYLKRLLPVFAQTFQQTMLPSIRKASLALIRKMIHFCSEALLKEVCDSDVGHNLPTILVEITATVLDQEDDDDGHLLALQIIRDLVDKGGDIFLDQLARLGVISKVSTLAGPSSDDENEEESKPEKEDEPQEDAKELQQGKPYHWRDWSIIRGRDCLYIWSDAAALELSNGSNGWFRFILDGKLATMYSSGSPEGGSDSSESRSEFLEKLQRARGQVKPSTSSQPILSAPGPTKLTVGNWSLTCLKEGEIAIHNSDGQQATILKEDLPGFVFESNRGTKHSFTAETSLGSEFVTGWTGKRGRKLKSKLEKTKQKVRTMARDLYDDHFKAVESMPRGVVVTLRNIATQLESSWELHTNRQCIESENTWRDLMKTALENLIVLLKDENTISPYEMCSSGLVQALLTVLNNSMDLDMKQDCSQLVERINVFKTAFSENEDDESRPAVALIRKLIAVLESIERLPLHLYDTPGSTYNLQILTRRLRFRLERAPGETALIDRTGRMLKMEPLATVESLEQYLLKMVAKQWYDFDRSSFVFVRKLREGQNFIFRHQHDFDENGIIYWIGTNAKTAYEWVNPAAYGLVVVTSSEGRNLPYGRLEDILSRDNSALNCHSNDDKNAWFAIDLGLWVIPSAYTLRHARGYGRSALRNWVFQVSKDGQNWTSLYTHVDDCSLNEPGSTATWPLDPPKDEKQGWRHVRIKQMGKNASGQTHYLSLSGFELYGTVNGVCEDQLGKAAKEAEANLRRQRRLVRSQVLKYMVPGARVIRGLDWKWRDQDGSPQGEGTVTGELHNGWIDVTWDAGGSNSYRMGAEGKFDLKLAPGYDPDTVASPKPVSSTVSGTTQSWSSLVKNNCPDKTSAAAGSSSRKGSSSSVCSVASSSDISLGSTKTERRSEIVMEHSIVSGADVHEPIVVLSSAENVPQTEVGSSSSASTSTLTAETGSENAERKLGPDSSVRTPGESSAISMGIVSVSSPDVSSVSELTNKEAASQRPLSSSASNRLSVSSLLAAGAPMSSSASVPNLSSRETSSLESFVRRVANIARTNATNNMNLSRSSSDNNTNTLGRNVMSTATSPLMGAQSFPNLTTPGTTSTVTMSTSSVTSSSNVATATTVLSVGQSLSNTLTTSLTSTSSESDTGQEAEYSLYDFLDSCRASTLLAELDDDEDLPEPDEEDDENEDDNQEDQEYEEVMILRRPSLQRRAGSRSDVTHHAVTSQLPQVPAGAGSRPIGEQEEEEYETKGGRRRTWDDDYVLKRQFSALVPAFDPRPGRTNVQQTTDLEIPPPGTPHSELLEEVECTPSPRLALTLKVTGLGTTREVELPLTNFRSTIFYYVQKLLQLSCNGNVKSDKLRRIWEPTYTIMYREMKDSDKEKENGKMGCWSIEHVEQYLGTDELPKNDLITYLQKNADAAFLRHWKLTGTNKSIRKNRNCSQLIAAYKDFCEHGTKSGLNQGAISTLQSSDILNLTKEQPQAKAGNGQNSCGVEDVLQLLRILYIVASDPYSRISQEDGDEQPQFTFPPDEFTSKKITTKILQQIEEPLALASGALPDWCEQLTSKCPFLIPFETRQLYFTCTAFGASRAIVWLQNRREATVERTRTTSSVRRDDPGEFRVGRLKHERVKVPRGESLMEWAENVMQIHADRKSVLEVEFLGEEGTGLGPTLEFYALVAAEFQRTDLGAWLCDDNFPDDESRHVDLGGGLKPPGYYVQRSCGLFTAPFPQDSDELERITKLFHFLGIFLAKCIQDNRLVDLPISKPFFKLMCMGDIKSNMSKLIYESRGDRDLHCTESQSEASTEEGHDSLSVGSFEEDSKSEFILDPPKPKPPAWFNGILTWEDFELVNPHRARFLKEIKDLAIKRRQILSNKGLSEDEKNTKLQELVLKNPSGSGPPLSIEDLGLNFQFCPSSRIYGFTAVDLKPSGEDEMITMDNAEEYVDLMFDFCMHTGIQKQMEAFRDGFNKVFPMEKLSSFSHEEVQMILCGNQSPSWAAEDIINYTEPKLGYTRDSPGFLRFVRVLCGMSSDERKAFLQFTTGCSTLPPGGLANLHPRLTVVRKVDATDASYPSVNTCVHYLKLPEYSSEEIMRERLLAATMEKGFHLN
UniProt P54727: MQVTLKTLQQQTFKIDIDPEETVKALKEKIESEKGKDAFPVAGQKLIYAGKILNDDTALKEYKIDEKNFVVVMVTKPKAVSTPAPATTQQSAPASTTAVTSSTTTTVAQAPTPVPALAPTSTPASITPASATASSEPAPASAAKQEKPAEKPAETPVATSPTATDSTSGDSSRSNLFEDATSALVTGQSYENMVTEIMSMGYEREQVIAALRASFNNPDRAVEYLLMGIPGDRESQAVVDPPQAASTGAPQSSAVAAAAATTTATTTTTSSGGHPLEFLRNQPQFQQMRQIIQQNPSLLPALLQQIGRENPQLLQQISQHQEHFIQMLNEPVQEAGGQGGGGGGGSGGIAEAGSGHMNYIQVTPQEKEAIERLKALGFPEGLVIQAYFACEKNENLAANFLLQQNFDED
UniProt Q05086: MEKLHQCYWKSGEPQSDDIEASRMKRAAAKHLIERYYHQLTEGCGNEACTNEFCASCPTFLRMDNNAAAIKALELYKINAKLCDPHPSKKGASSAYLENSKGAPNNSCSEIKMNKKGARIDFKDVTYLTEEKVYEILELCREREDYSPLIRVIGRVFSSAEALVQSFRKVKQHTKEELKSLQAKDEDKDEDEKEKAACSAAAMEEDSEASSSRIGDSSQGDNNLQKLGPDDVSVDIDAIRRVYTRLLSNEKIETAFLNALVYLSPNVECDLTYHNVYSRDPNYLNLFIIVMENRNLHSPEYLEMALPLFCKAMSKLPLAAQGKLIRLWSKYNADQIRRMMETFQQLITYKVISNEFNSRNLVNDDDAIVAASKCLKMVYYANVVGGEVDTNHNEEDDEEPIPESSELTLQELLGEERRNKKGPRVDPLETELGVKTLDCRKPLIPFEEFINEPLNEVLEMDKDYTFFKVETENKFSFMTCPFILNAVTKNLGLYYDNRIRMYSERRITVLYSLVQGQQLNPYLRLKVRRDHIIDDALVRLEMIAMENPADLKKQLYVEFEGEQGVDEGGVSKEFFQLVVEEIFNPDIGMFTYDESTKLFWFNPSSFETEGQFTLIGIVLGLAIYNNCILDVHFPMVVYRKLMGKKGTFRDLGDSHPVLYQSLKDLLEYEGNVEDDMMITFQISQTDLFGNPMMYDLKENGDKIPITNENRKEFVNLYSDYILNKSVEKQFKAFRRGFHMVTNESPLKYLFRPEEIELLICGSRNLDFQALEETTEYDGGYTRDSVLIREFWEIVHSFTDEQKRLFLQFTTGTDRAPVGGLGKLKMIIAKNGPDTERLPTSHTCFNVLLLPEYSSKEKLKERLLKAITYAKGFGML

The target in experiment [2] is T1, C9orf72-HA (C-terminal HA-tagged C9orf72). Described as above. This is another data set of the same source.

Read-outs that look alike come from different tables or passages of the source. No constants are given. Whether binding was seen depends on the method and setting. Binding seen in cells or lysates may run through a third protein. A yes stands for co-enrichment or nearness to the bait. Other partners may have been found. For some assays here: A no says only that the protein was not detected with the bait. Sequences can lack the tags named with a protein.

For the molecule “BAG6, endogenous (from UniProt P46379 1-1132)”, in experiment [1], the binding result was “binds”.

On to “GET4, endogenous (from UniProt Q7L5D6 1-327)”, for which the binding result in experiment [1] is listed as “binds”.

Turning to “HECTD1, endogenous (from UniProt Q9ULT8 1-2610) (enzyme)”, in experiment [1], the binding result is recorded as “binds”.

Regarding “RAD23B, endogenous (from UniProt P54727 1-409)”, the binding entry in experiment [1] is “binds”.

Consider “UBE3A, endogenous (from UniProt Q05086 1-875) (enzyme)”, for which, in experiment [1], the binding entry is reported as “binds”.

With “UBR4, endogenous (from UniProt Q5T4S7 1-5183) (enzyme)”, in experiment [1], the binding result was “no binding”.

For the molecule “UBR5 (E3 ligase), endogenous (from UniProt O95071 1-2799) (enzyme)”, the binding result in experiment [1] is “binds”.

In the case of “VCP, endogenous (from UniProt P55072 1-806)”, the binding entry in experiment [1] is “binds”.

B1: RLIM, endogenous (enzyme, UniProt Q9NVW2 1-624)
chain: MENSDSNDKGSGDQSAAQRRSQMDRLDREEAFYQFVNNLSEEDYRLMRDNNLLGTPGESTEEELLRRLQQIKEGPPPQNSDENRGGDSSDDVSNGDSIIDWLNSVRQTGNTTRSGQRGNQSWRAVSRTNPNSGDFRFSLEINVNRNNGSQNSENENEPSARRSSGENVENNSQRQVENPRSESTSARPSRSERNSTEALTEVPPTRGQRRARSRSPDHRRTRARAERSRSPLHPMSEIPRRSHHSISSQTFEHPLVNETEGSSRTRHHVTLRQQISGPELLSRGLFAASGTRNASQGAGSSDTAASGESTGSGQRPPTIVLDLQVRRVRPGEYRQRDSIASRTRSRSQTPNNTVTYESERGGFRRTFSRSERAGVRTYVSTIRIPIRRILNTGLSETTSVAIQTMLRQIMTGFGELSYFMYSDSDSEPTGSVSNRNMERAESRSGRGGSGGGSSSGSSSSSSSSSSSSSSSSSSSSPSSSSGGESSETSSDLFEGSNEGSSSSGSSGARREGRHRAPVTFDESGSLPFLSLAQFFLLNEDDDDQPRGLTKEQIDNLAMRSFGENDALKTCSVCITEYTEGNKLRKLPCSHEYHVHCIDRWLSENSTCPICRRAVLASGNRESVV
Consider B1, for which, in experiment [2], the binding entry was “binds”.

B2: UBL4A, endogenous (protein, UniProt P11441 1-157)
chain: MQLTVKALQGRECSLQVPEDELVSTLKQLVSEKLNVPVRQQRLLFKGKALADGKRLSDYSIGPNSKLNLVVKPLEKVLLEEGEAQRLADSPPPQVWQLISKVLARHFSAADASRVLEQLQRDYERSLSRLTLDDIERLASRFLHPEVTETMEKGFSK
As for B2, the binding entry in experiment [2] was “binds”.

B3: MARCH7, endogenous (enzyme, UniProt Q9H992 1-704)
chain: MESKPSRIPRRISVQPSSSLSARMMSGSRGSSLNDTYHSRDSSFRLDSEYQSTSASASASPFQSAWYSESEITQGARSRSQNQQRDHDSKRPKLSCTNCTTSAGRNVGNGLNTLSDSSWRHSQVPRSSSMVLGSFGTDLMRERRDLERRTDSSISNLMDYSHRSGDFTTSSYVQDRVPSYSQGARPKENSMSTLQLNTSSTNHQLPSEHQTILSSRDSRNSLRSNFSSRESESSRSNTQPGFSYSSSRDEAPIISNSERVVSSQRPFQESSDNEGRRTTRRLLSRIASSMSSTFFSRRSSQDSLNTRSLNSENSYVSPRILTASQSRSNVPSASEVPDNRASEASQGFRFLRRRWGLSSLSHNHSSESDSENFNQESEGRNTGPWLSSSLRNRCTPLFSRRRREGRDESSRIPTSDTSSRSHIFRRESNEVVHLEAQNDPLGAAANRPQASAASSSATTGGSTSDSAQGGRNTGISGILPGSLFRFAVPPALGSNLTDNVMITVDIIPSGWNSADGKSDKTKSAPSRDPERLQKIKESLLLEDSEEEEGDLCRICQMAAASSSNLLIEPCKCTGSLQYVHQDCMKKWLQAKINSGSSLEAVTTCELCKEKLELNLEDFDIHELHRAHANEQAEYEFISSGLYLVVLLHLCEQSFSDMMGNTNEPSTRVRFINLARTLQAHMEDLETSEDDSEEDGDHNRTFDIA
In the case of B3, the binding result in experiment [2] is “binds”.

The values above are taken from PMC10398660.
